Patent publication US10272135B2, “Apolipoprotein O and fragments thereof for inducing apoptosis in a cancerous cell” (INSERM (INSTITUT NATIONAL DE LA SANTÉ ET DE LA RECHERCHE …, priority 2014, dated 2019)

System: mouse heart
Test: Cardiac specific human ApoO transgenic mice (ApoO-Tg)
Assay type: in vivo
Source text: After ethical committee approval, all patients in this study gave written consent for sample collection and molecular analysis prior to inclusion. Patients were carefully selected by physicians from the Department of Cardiology, Toulouse University Hospital, prior to coronary by-pass surgery. Bioinformatics. Microarray expression data from human heart samples were downloaded from the GEO repository (GSE1145). This series consisted of 107 myocardial samples collected from patients undergoing cardiac transplantation whose failure arises from different etiologies (e.g. idiopathic dilated cardiomyopathy, ischemic cardiomyopathy, valvular cardiomyopathy, and hypertrophic cardiomyopathy) and from “normal” organ donors whose hearts cannot be used for transplants. Arrays were intensity normalized and hierarchical clustering (average group linkage, Pearson correlation, threshold r=0.8) was applied to identify groups of co-expressed genes. ApoO expression levels were plotted for the 107 human hearts tested and used to define relevant molecular pathways using both Toppgene and Ingenuity Pathway Analysis (Ingenuity systems, Redwood City, Calif., USA). ApoO subcellular localization was predicted using Mitopred, mitoprot and YLoc. Animals: All animal Studies followed the INSERM Institute Animal Facility guidelines and were approved by the animal care committees of the INSERM I2MC UMR 1048. All animal procedures were performed according to the guidelines of the French Ministry of Agriculture. Animals were housed at the Toulouse I2MC animal facility in a room lit 12 h per day (6 AM-6 PM) at an ambient temperature of 22+/−1° C. […] All ApoO sequences within the expression vectors were verified by DNA double strand sequencing using ABI PRISM®BigDye™ Terminator version 3.1 Ready reaction cycle sequencing kit (Life Technologies SAS, Villebon sur Yvette) and loaded on an ABI 3130XL DNA sequencing instrument (Life Technologies SAS, Villebon sur Yvette). […]

B1: ApoO: 198-amino acid apolipoprotein, SEQ ID NO: 1; tested by overexpression from expression vectors or transgene (protein, listed as Homo sapiens)
chain: MFKVIQRSVGPASLSLLTFKVYAAPKKDSPPKNSVKVDELSLYSVPEGQSKYVEEARSQLEESISQLRHYCEPYTTWCQETYSQTKPKMQSLVQWGLDSYDYLQNAPPGFFPRLGVIGFAGLIGLLLARGSKIKKLVYPPGFMGLAASLYYPQQAIVFAQVSGERLYDWGLRGYIVIEDLWKENFQKPGNVKNSPGTK
Cardiac specific ApoO-Tg mice, ECG
  PR interval: lengthening
Cardiac specific ApoO-Tg mice, echocardiography
  fractional shortening and ejection fractions: reduction
Hearts constitutively expressing human ApoO at less than 2 times endogenous
  ventricular function: depressed ventricular function
